# Laboratory results from patent US20200390774A1, “TRPA1 ANTAGONISTS FOR USE IN THE TREATMENT OF ATOPIC DERMATITIS” (GALDERMA RESEARCH & DEVELOPMENT, priority 2016, published 2020).
# Some entries share one result that the patent states for a list of compounds.
# Tested on: mouse AD-patch model
# Assay: AD-patch model (DERP epicutaneous sensitization)
# Type: in vivo
# Details: topical 1% in acetone; skin, day 51; one range for both cytokines and both antagonists
# Description: Female Balb/c mice were treated with Dermatophagoïdes pteronyssinus (DERP) allergen in 3 cycles of epicutaneous sensitization (patch) on abdominal skin with 2 patches applied twice weekly followed by 2 weeks of rest, during 7 weeks. Antagonists B or D were formulated at 1% in an acetone vehicle, applied to the sensitized-skin 2 hours before DERP-patches installation. Topical treatments with antagonists or a corticosteroid (used as a control) were only performed 3 times in the 3rd and last week of sensitization (at days 44, 47 and 50).
# TEWL is measured the last day (Day 51) according to the protocol of FIG. 2.
# On day 51, animals are sacrificed and skin is removed and fixed in formalin followed by embedment in paraffin, sectioning and staining with hematoxylin and eosin. Epidermis thickness is measured by averaging the values of measurements of five independent fields of view.
# On day 51, animals are sacrificed and skin is removed and fixed in formalin followed by embedment in paraffin, sectioning and staining with hematoxylin and eosin. Inflammation score is quantified by averaging the values of 10 random fields of view per sample, scored for inflammation with a gradient (semi-quantitative scoring from 0 to 5). […]
# Skin was collected for histological, immunohistological analyses and real-time PCR after RNA extraction. Ig (IgE, and specific IgG) concentrations in serum were measured by ELISA
compound,measurement,value
Cc1cc2[nH]ncc2cc1-c1ccccc1C(F)(F)F [compound B],"expression of Th2 cytokines, IL4 and TSLP mRNA, change",−56% to −66%
"CCC(C)c1ccc(NC(=O)Cn2cnc3c2c(=O)n(C)c(=O)n3C)cc1 (centres unmarked) [compound D, reference compound]","expression of Th2 cytokines, IL4 and TSLP mRNA, change",−56% to −66%
